Experiment [1] concerns the target Coproporphyrinogen-III oxidase, mitochondrial (Homo sapiens, UniProt P36551). Description: MS-CETSA in normal BJ cell lysates. Conditions: lysate, 100 μM compound.
Experiment [2] addresses Mitochondrial-processing peptidase subunit alpha (Homo sapiens, UniProt Q10713). Put plainly: MS-CETSA in normal BJ cell lysates. The following applies: lysate, 100 μM compound.
Experiment [3] deals with NmrA-like family domain-containing protein 1 (Homo sapiens, UniProt Q9HBL8). Put plainly: MS-CETSA in normal BJ cell lysates. Conditions: lysate, 100 μM compound.
Experiment [4] has as its target Delta(3,5)-Delta(2,4)-dienoyl-CoA isomerase, mitochondrial (Homo sapiens, UniProt Q13011). Put plainly: MS-CETSA in normal BJ cell lysates. Conditions: lysate, 100 μM compound.
Experiment [5] deals with Isoform 6 of Protein WWC2 (Homo sapiens, UniProt Q6AWC2). Description: MS-CETSA in normal BJ cell lysates. The following applies: Uniprot Q6AWC2-6; lysate, 100 μM compound.
For experiment [6], the target named is Probable ATP-dependent RNA helicase DDX17 (Homo sapiens, UniProt Q92841). Put plainly: MS-CETSA in normal BJ cell lysates. The following applies: Uniprot H3BLZ8; lysate, 100 μM compound.
For experiment [7], the target named is Phospholipid hydroperoxide glutathione peroxidase, mitochondrial (Homo sapiens, UniProt P36969). Put plainly: MS-CETSA in normal BJ cell lysates. The following applies: lysate, 100 μM compound.
Experiment [8] has as its target Tetratricopeptide repeat protein 5 (Homo sapiens, UniProt Q8N0Z6). Description: MS-CETSA in normal BJ cell lysates. Conditions: lysate, 100 μM compound.
For experiment [9], the system named is normal and transformed BJ cells. Put plainly: a131 SAR analysis: pH3(Ser10) immunoblot, BrdU incorporation, subG1 FACS. Conditions: 5 μM, 48 h.
For experiment [10], the system named is PIK3IP1. Description: qRT-PCR of PIK3IP1 mRNA in Ras- or Raf-mutant cancer cell lines. The following applies: 2.5 and 5 μM, 24 h; compared with normal cells.
Experiment [11] deals with normal and transformed BJ cells. Put plainly: Chemoprotection: a166 pre-treatment followed by a159, paclitaxel or etoposide. Conditions: a166 5 μM 48 h, then paclitaxel or etoposide 48-72 h.
In experiment [12] the test system is Ras/Raf/MEK/ERK pathway. Put plainly: Immunoblot of ERK phosphorylation. Conditions: normal BJ cells, 24 h.
For experiment [13], the system named is PIK3IP1. Description: qRT-PCR and immunoblot of PIK3IP1 in BJ cells. Conditions: 5 μM, 24 h.

Chains of the proteins cited; added tags and fusions are not shown. Residues count along the entry.
UniProt P36551, 111-454 limits assumed: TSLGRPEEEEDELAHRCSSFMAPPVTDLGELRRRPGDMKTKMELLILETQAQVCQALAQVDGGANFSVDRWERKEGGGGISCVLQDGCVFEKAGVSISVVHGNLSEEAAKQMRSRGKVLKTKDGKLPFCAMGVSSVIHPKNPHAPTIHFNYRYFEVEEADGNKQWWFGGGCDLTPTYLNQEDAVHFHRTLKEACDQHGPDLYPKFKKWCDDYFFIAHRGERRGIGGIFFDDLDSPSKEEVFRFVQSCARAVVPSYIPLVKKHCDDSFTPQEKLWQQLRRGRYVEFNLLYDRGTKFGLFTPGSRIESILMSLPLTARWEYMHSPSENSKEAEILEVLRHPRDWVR
UniProt Q10713, 34-525 limits assumed: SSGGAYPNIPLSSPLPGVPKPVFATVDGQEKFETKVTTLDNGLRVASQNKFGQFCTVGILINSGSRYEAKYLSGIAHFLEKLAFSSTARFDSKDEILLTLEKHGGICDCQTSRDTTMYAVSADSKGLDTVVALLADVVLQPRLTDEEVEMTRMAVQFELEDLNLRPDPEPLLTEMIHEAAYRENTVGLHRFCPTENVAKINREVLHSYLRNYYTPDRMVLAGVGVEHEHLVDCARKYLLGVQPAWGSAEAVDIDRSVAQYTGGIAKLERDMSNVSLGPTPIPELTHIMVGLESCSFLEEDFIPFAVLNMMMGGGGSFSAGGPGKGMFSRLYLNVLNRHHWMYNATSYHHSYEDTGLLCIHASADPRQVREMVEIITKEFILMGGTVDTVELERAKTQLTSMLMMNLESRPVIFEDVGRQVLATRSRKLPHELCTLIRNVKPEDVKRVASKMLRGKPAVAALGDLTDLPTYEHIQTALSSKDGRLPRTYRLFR
UniProt Q9HBL8, whole entry: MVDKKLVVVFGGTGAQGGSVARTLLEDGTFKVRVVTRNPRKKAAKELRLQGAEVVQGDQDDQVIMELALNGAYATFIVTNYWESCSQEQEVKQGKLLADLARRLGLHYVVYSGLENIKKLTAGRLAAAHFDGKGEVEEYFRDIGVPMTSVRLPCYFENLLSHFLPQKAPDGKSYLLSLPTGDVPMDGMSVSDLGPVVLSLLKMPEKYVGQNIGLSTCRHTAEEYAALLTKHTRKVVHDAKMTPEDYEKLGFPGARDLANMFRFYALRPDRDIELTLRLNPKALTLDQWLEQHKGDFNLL
UniProt Q13011, 34-328 limits assumed: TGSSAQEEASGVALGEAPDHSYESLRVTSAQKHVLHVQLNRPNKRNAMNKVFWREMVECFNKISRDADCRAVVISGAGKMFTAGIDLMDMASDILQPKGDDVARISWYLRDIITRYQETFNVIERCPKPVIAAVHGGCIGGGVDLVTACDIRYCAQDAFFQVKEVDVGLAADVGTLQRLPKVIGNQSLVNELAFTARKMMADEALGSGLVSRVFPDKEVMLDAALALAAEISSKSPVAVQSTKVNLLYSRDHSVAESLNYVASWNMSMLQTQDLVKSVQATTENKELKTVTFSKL
UniProt Q6AWC2, 1-1216 isoform 6: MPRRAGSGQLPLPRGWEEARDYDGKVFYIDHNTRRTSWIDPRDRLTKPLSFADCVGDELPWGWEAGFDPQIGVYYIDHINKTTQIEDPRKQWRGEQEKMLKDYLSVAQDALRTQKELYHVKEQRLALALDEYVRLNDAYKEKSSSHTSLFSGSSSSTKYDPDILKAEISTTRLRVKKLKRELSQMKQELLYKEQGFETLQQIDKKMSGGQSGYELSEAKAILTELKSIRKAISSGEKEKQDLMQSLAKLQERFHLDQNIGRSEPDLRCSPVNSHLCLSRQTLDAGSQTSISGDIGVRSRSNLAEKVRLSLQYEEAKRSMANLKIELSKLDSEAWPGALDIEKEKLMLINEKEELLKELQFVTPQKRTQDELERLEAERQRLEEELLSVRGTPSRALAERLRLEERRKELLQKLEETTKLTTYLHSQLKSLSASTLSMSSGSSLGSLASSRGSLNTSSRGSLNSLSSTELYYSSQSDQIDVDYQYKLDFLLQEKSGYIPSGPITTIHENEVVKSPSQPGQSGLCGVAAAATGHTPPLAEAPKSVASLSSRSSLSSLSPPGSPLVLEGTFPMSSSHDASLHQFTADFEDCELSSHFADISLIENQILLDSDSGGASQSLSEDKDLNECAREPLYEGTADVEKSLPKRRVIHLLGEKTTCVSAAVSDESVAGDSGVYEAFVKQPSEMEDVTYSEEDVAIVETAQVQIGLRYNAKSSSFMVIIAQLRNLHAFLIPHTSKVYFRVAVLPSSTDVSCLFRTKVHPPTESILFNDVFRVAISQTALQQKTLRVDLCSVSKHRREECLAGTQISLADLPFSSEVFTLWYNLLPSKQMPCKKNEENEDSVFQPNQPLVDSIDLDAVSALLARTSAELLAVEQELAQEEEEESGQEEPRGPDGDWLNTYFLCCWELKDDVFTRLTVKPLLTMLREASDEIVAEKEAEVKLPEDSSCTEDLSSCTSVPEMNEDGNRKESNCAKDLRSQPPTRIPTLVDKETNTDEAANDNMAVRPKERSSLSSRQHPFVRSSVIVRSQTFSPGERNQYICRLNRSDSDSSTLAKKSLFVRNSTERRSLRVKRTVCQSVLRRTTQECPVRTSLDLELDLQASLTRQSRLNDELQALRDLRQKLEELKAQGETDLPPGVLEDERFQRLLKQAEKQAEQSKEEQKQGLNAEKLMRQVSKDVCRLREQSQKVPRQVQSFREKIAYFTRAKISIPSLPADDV
UniProt Q92841, whole entry: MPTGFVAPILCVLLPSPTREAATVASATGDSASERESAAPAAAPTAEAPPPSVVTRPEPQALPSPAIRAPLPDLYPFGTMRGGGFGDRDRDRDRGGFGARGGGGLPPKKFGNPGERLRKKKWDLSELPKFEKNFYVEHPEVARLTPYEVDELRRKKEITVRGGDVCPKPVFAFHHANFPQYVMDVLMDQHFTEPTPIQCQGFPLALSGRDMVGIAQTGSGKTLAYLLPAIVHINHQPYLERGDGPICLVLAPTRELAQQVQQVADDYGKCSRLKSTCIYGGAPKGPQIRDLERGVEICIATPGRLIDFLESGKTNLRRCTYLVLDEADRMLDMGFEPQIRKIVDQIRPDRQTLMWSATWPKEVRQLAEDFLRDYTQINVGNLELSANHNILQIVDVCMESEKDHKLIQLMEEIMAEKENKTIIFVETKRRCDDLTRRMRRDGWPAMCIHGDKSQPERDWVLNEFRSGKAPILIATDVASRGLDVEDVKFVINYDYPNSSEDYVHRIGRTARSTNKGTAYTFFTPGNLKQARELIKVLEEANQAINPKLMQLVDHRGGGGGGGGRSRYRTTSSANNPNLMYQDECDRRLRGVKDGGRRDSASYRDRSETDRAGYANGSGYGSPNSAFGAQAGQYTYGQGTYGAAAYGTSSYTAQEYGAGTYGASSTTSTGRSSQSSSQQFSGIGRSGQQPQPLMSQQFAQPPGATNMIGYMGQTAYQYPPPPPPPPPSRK
UniProt P36969, whole entry: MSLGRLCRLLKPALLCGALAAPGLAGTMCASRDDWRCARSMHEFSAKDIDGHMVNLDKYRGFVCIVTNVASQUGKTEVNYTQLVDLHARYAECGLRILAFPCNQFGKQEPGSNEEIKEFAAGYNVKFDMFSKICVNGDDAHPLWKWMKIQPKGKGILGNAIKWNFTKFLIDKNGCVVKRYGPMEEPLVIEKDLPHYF
UniProt Q8N0Z6, whole entry: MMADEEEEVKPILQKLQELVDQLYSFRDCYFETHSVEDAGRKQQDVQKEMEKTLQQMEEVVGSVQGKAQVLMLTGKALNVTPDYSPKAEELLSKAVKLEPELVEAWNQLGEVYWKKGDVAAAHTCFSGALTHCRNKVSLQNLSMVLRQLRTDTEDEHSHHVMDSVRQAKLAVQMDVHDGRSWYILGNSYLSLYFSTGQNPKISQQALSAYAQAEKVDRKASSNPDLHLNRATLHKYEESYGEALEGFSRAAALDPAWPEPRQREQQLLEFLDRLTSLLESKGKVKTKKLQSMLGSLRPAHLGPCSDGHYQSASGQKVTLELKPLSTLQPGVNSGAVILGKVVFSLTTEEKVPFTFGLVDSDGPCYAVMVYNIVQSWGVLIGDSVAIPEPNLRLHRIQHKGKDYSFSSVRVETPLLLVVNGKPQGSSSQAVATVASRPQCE
UniProt O75439, 46-489 partner limits assumed: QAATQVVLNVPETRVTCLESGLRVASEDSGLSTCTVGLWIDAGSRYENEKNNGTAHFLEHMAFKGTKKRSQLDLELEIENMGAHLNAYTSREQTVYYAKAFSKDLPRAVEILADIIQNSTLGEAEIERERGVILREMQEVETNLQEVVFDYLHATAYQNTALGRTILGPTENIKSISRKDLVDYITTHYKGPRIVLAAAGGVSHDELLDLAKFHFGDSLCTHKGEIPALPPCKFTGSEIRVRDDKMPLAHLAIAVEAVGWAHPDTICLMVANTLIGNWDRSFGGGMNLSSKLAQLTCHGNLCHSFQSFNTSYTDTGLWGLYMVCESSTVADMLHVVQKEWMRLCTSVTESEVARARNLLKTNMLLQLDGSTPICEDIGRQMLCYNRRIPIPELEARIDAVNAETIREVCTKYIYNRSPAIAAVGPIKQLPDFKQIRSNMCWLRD

Molecules are shown by their SMILES. The structures given here were assigned with low confidence; some may be wrong.

Consider `C(=C\c1c[nH]c2ccccc12)/c1cccc2cnccc12`, for which the ED score in experiment [1] worked out at 0.5715; in experiment [2], 0.6182; in experiment [3], 0.3484; in experiment [4], 0.543; in [5] it was 0.3774; in [6] it was 0.3454. Further, the results for the ED score in experiment [7] and in experiment [8] were 0.4563 and 0.2802, respectively. The mean Delta Tm in experiment [1] was 4.08 °C; in [2], 2.72 °C; in [3], 2.67 °C; in experiment [4], 2.1 °C; in experiment [5] it was 3.47 °C; in [6] it was 2.01 °C. Also, the mean Delta Tm worked out at 1.93 °C in experiment [7] and 2.11 °C in [8]. Further, the “Group (a131 SAR analysis)” value in [9] is “Group 2”. In addition, in experiment [10], the “induction of PIK3IP1 in Ras- and Raf-mutant cancer cells” value is recorded as “significantly attenuated”. Besides, the “protection of normal BJ cells from paclitaxel and etoposide by pre-treatment” value in [11] is reported as “markedly augmented such selectivity by protecting normal BJ cells from chemotherapeutic toxicity”. The “inhibition of the Ras/Raf/MEK/ERK pathway (ERK phosphorylation)” value in experiment [12] is “Neither a131 and a166 treatment nor PI5P4Ks knockdown inhibited”. Moreover, the “PIK3IP1 mRNA and protein levels” value in experiment [13] (normal BJ cells) was “up-regulation of PIK3IP1 at both the mRNA and protein levels”. In addition, the “PIK3IP1 mRNA expression” value in [13] (transformed BJ cells) is recorded as “unresponsive”.

These data come from US20190350964A1, “ANTI-CANCER COMPOUNDS AND USES THEREOF” (NATIONAL UNIVERSITY OF SINGAPORE, priority 2016, published 2019).
